Results reported in patent US20070213275A1, “Formulations for ecallantide” (DYAX CORP., priority 2006, published 2007).
Entries after “also recorded” stand apart in the source; their conditions may differ. Part of at least one peptide drawing is inferred or uncertain, most often the ends. Positions of bridges follow the written chain, without caps; N, C: chain ends. No end group written: not given here.

Protein sequences, listed by entry. Tags and fused reporters are not part of them. Residues count along the entry.
UniProt P03952, 20-638: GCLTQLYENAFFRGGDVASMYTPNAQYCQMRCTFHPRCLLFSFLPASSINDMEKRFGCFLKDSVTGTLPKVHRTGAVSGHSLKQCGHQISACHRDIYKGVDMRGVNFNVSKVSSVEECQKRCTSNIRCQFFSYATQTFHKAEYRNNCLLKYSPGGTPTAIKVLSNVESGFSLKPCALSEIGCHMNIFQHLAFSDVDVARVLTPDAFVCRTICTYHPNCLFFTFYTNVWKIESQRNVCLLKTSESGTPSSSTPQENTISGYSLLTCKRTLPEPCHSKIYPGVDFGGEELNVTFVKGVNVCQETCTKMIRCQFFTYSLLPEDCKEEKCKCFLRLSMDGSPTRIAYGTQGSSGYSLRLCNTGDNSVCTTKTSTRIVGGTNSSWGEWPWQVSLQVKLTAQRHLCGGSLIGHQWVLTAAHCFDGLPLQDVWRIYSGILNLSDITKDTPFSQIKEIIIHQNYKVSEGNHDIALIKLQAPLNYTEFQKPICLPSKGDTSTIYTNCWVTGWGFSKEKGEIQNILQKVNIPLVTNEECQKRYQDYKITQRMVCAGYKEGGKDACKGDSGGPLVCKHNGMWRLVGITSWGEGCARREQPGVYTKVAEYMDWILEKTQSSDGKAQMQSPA

What was measured:
[1] = Ecallantide stability in liquid buffers at pH 6.0, 6.5 and 7.0 (SEC-HPLC and RP-HPLC); type: physicochemical; conditions: 10 mg/mL ecallantide, pH 6.0-7.0 buffers, stored at 4° or 30° C. for six weeks
plasma kallikrein = plasma kallikrein (Homo sapiens, UniProt P03952); conditions: cited from earlier work

Sequence: EAMHSFCAFKADDGPCRAAHPRWFFNIFTRQCEEFIYGGCEGNQNRFESLEECKKMCTRD (disulfide 7-57, 16-40, 32-53) [Ecallantide]
- high molecular weight species (aggregates), SEC-HPLC [1]: increasing high molecular weight species (aggregates) with increasing pH
- low molecular weight species (fragments), SEC-HPLC [1]: decreased with increasing pH
- inhibition of plasma kallikrein (plasma kallikrein): highly effective inhibitor; also recorded: potent inhibitor
